Values of other authors as cited in patent publication US12419937B2, “High concentration alpha-glucosidase compositions for the treatment of Pompe disease” (Amicus Therapeutics, Inc., priority 2012, dated 2025).
Some entries share one result that the patent states for a list of compounds.

Details: stored at 2 to 8° C.; cited from earlier work

alglucosidase alfa [Myozyme®]
time the product is stable: up to 24 hours
